From PubChem BioAssay AID624024 (Broad Institute, 2012)
The inconclusive results got no clear call from the source; some entries with a clear call stand among them for comparison. Activity calls are given as the source filed them.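 The calls were made as follows: active = fitted curve rises past 40% HDL binding increase at a concentration no higher than twice the top valid tested dose; inconclusive = no clear call, values can overlap the other calls; inactive = effects opposite to the expected rise, plus the rest.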

Protein sequences, listed by entry. Tags and fused reporters are not part of them. Lines headed by an entry give the natural chain unless they say otherwise; changes in a name come on top.
UniProt Q61009: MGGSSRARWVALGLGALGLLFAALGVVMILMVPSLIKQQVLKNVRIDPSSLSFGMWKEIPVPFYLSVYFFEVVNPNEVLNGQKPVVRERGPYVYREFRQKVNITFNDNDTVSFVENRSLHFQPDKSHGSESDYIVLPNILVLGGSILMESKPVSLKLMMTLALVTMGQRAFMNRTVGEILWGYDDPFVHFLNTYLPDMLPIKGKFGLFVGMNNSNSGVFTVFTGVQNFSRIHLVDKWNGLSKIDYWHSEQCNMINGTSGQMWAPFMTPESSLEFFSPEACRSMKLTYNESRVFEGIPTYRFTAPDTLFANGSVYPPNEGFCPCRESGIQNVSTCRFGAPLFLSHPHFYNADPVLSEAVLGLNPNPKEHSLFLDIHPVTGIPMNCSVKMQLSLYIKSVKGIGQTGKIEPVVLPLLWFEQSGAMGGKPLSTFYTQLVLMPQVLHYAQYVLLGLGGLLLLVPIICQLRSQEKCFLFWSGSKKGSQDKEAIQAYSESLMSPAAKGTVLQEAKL

What follows are molecules tested against Scavenger receptor class B member 1 (Mus musculus) (UniProt Q61009) (assay: SR-BI HDL particle binding change, fluorescent HDL – cell-based, ldlA[mSR-BI] CHO, Alexa 488-HDL, powder samples, set 3, orthogonal assay for SR-BI HDL uptake inhibitor project, dose response (AID 624024)). Conditions: ldlA[mSR-BI] CHO cells, Alexa488-HDL binding fluorescence, 3 h; at 35 µM (top of the series).

SMILES | HDL binding change, positive = increase
CC(C)NC(=O)Nc1ccc2c(c1)C(=O)N([C@H](C)CO[Si](C)(C)C(C)(C)C)C[C@@H](C)[C@H](CN(C)S(=O)(=O)c1ccc(Cl)cc1)O2 | inconclusive: 61.6%
CC(C)NC(=O)Nc1ccc2c(c1)CC(=O)N([C@H](C)CO)C[C@@H](C)[C@H](CN(C)S(=O)(=O)c1ccc(Cl)cc1)O2 | inconclusive: 50.6%
Cc1ccc(OCc2cc(C(=O)N3CCCC(O)C3)no2)cn1 (stereo not drawn) | inactive: 36%
